Laboratory results reported in publication PMC9018756.
These are yes or no findings as the source states them, for the method shown. Binding seen in cells or lysates may run through a third protein. A yes stands for co-enrichment or nearness to the bait. Other partners may have been found.

The chains behind the UniProt entries cited, without tags or fusion partners.
UniProt P46935: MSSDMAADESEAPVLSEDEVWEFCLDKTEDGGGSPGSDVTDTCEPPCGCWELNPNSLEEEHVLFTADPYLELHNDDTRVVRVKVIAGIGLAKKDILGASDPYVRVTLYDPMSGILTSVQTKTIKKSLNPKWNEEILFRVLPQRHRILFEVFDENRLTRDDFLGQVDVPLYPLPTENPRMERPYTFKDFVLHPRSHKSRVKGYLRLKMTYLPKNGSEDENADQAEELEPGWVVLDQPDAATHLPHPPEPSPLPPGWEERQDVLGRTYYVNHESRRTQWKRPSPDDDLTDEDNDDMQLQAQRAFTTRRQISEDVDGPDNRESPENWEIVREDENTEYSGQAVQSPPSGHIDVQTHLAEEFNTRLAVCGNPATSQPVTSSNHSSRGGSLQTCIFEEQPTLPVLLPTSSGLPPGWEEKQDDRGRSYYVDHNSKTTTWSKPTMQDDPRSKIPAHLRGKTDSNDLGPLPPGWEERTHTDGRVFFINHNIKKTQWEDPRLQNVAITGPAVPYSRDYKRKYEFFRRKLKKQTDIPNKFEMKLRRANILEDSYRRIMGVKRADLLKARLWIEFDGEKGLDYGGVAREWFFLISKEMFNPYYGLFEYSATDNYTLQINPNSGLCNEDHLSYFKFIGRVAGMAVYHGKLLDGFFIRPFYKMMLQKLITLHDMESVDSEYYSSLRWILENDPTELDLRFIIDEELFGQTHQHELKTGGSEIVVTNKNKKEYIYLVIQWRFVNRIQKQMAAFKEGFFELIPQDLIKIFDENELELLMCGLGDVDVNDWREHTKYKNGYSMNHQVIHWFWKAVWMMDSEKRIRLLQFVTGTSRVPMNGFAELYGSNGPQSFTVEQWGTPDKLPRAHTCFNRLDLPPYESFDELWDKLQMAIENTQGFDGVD
UniProt B1AVY7: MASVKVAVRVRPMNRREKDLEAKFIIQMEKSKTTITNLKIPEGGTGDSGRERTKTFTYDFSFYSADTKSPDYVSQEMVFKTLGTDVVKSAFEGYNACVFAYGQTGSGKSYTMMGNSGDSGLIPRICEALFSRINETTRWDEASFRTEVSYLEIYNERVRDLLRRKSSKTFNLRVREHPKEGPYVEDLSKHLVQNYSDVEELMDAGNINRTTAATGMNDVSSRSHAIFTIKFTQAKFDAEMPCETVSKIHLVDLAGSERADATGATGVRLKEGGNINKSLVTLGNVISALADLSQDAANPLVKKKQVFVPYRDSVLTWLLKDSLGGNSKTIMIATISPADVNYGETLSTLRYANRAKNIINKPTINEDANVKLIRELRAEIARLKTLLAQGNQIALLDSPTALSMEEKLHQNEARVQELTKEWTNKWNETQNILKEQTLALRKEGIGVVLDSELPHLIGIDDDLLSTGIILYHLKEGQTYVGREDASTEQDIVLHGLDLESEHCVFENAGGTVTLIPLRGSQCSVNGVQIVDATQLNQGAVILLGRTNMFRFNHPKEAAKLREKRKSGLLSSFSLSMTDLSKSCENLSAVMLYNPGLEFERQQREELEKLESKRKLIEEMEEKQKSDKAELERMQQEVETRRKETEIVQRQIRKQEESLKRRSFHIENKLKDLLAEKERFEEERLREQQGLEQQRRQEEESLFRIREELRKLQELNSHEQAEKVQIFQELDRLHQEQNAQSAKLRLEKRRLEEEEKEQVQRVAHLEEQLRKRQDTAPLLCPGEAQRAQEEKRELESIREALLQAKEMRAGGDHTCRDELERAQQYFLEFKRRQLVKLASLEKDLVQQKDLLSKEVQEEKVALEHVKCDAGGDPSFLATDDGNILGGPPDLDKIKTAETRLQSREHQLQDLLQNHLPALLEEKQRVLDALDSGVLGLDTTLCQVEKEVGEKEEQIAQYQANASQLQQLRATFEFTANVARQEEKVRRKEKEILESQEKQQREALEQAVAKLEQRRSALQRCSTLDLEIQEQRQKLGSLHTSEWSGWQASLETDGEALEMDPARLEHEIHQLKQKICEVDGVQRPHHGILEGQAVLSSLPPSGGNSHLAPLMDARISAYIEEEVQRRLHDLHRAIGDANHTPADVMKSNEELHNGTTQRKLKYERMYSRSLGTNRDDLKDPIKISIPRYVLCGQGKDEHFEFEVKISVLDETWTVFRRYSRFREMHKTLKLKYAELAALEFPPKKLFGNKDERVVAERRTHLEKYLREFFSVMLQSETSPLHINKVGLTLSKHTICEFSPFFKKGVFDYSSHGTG

Target: NEDD4 (mouse (endogenous in NCU10K)) (UniProt P46935)
Assay: affinity purification with mass spectrometry; NEDD4 precipitated with anti-NEDD4 on protein G dynabeads from LIGHT SILAC NCU10K lysate (non-denaturing buffer, 1% NP40, 150 mM NaCl, 2 h at 4 °C); compared to IgG control IP from HEAVY SILAC cells; LC-MS/MS; over 1.5-fold enrichment

binding: binds
Substance: KIF16B (from UniProt B1AVY7 1-1312)
